Results as given in patent US8871492B2, “Anti-dementia substance from Hericium erinaceum and method of extraction” (priority 2008, dated 2014).

System: NGF
Experiment: NGF content of brain regions of Aβ1-40-induced AD rats by ELISA
Format: in vivo, Sprague-Dawley male rats
Conditions: Donepezil 1 mg/kg; after four weeks of treatment; mean ± SD
Description: The control group was injected with 5 μL of saline. […] From the fourth week after the administration, learning and memory-related behavior was assessed using the Morris Water Maze Test on ten rats arbitrarily-chosen from each group once a day for one week (from day 1 to day 6 the time to arrive at the platform is measured, and on day 7 the platform is removed and the frequency to cross (pass by) the platform location is counted). After completing the behavioral test, the rats were sacrificed. The cerebral tissues separated from half of the rats of each group were used for pathological examination, and the olfactory bulb, hippocampus, locus ceruleus, and cerebral cortex from another half were used to determine the NGF content with enzyme-linked immunosorbent assay (ELISA).

COc1cc2c(cc1OC)C(=O)C(CC1CCN(Cc3ccccc3)CC1)C2 (stereo not shown) [Donepezil]
NGF content, Cerebral cortex: 6.79 ± 1.10 ng/g cranial nerve nucleus | NGF content, Hippocampus: 14.20 ± 4.14 ng/g cranial nerve nucleus | NGF content, Locus ceruleus: 3.07 ± 1.38 ng/g cranial nerve nucleus | NGF content, Olfactory bulb: 10.11 ± 2.10 ng/g cranial nerve nucleus
